Source: patent US8658801B2, “Pesticides containing a bicyclic bisamide structure” (Syngenta Crop Protection, LLC, priority 2006, dated 2014)
Some of these results come from one statement about several compounds together.

Tests used:
[1] = tested on: Aphis qossvpii (Cotton Aphid); test: Example B12: activity against cotton aphid, mixed population, contact/feeding; format: in vivo; details: 400 ppm; 6 days after treatment; spray (contact/feeding)
[2] = tested on: Nilaparvata lugens (Brown Rice Planthopper); test: Example B9: activity against Nilaparvata lugens, larvicide, feeding/contact (rice seedlings); details: 400 ppm; 6-12 days after treatment; N3 nymphs
[3] = tested on: Bemisia tabaci (Tobacco White Fly); test: Example B9: activity against Bemisia tabaci, larvicide, contact/feeding (bean plants); format: in vivo; details: 400 ppm; three weeks after treatment; emerged adults

SMILES | activity [1] | activity [2] | activity [3]
COc1cc(C(=O)Nc2c(C)cc3cn[nH]c3c2C(=O)NC(C)C)n(-c2ncccc2Cl)n1 [P.27, 6-{[2-(3-chloro-pyridin-2-yl)-5-methoxy-2H-pyrazole-3-carbonyl]-amino}-5-methyl-1H-indazole-7-carboxylic acid isopropylamide] | over 80% | over 80% | 
COc1cc(C(=O)Nc2c(Cl)cc3cn[nH]c3c2C(=O)NC(C)C)n(-c2ncccc2Cl)n1 [P.40] | over 80% | over 80% | 
COc1cc(C(=O)Nc2c(Cl)cc3cn[nH]c3c2C(=O)NC2(C3CC3)CC2)n(-c2ncccc2Cl)n1 [P.47] | over 80% | over 80% | 
CSCC(C)(C)NC(=O)c1c(NC(=O)c2cc(C(F)(F)F)nn2-c2ncccc2Cl)c(Br)cc2cn[nH]c12 [P.33] |  |  | over 80%
CCNC(=O)c1c(NC(=O)c2cc(C(F)(F)F)nn2-c2ncccc2Cl)c(Cl)cc2cn[nH]c12 [P.30] |  |  | over 80%
CC(C)NC(=O)c1c(NC(=O)c2cc(Br)nn2-c2ncccc2Cl)c(Cl)cc2cn[nH]c12 [P.42] | over 80% | over 80% | 
CNC(=O)c1c(NC(=O)c2cc(C(F)(F)F)nn2-c2ncccc2Cl)c(Cl)cc2cn[nH]c12 [P.29] |  |  | over 80%
CC(C)NC(=O)c1c(NC(=O)c2cc(C(F)(F)F)nn2-c2ncccc2Cl)c(Cl)cc2cn[nH]c12 [P.10] | over 80% |  | over 80%
O=C(NC1(C2CC2)CC1)c1c(NC(=O)c2cc(C(F)(F)F)nn2-c2ncccc2Cl)c(Br)cc2cn[nH]c12 [P.18] |  |  | over 80%
CC(C)NC(=O)c1c(NC(=O)c2cc(Cl)nn2-c2ncccc2Cl)c(Cl)cc2cn[nH]c12 [P.43] |  | over 80% | 
O=C(NC1(C2CC2)CC1)c1c(NC(=O)c2cc(Cl)nn2-c2ncccc2Cl)c(Cl)cc2cn[nH]c12 [P.45, 5-chloro-6-{[5-chloro-2-(3-chloro-pyridin-2-yl)-2H-pyrazole-3-carbonyl]-amino}-1H-indazole-7-carboxylic acid bicyclopropyl-1-ylamide] |  | over 80% | 
O=C(NCC1CC1)c1c(NC(=O)c2cc(C(F)(F)F)nn2-c2ncccc2Cl)c(Br)cc2cn[nH]c12 [P.19] |  |  | over 80%
COc1cc(C(=O)Nc2c(C)cc3cn[nH]c3c2C(=O)NC2(C3CC3)CC2)n(-c2ncccc2Cl)n1 [P.28, 6-{[2-(3-chloro-pyridin-2-yl)-5-methoxy-2H-pyrazole-3-carbonyl]-amino}-5-methyl-1H-indazole-7-carboxylic acid bicyclopropyl-1-ylamide] |  | over 80% | 
O=C(NC1(C2CC2)CC1)c1c(NC(=O)c2cc(C(F)(F)F)nn2-c2ncccc2Cl)c(Cl)cc2cn[nH]c12 [P.12] |  |  | over 80%
